Our source for the binding values is publication PMC5482573.

No constants are given. Whether binding was seen depends on the method and setting. Binding calls can cover weak binding; strength is not graded here.

For this experiment, the target named is γ-COP (M. musculus, in recombinant coatomer) (M. musculus). Put plainly: cryo-EM structure; cryo-electron tomography and subtomogram averaging of the COPI leaf, 9.2 Å; coat assembled in vitro from coatomer (840 nM), Arf1 (2 μM), GTPγS, ARNO and GUVs, 37°C, 50 mM HEPES pH 7.4, 50 mM KOAc, 1 mM MgCl2; both purified.

B1: β-COP (M. musculus, in recombinant coatomer) (protein, UniProt Q9JIF7 1-953)
chain: MTAAENVCYTLINVPMDSEPPSEISLKNDLEKGDVKSKTEALKKVIIMILNGEKLPGLLMTIIRFVLPLQDHTIKKLLLVFWEIVPKTTPDGRLLHEMILVCDAYRKDLQHPNEFIRGSTLRFLCKLKEAELLEPLMPAIRACLEHRHSYVRRNAVLAIYTIYRNFEHLIPDAPELIHDFLVNEKDASCKRNAFMMLIHADQDRALDYLSTCIDQVQTFGDILQLVIVELIYKVCHANPSERARFIRCIYNLLQSSSPAVKYEAAGTLVTLSSAPTAIKAAAQCYIDLIIKESDNNVKLIVLDRLVELKEHPAHERVLQDLVMDILRVLSTPDLEVRKKTLQLALDLVSSRNVEELVIVLKKEVIKTNNVSEHEDTDKYRQLLVRTLHSCSVRFPDMAANVIPVLMEFLSDSNEAAAADVLEFVREAIQRFDNLRMLIVEKMLEVFHAIKSVKIYRGALWILGEYCSTKEDIQSVMTEVRRSLGEIPIVESEIKKEAGELKPEEEITVGPVQKLVTEMGTYATQSALSSSRPTKKEEDRPPLRGFLLDGDFFVAASLATTLTKIALRYVALVQEKKKQNSFVAEAMLLMATILHLGKSSLPKKPITDDDVDRISLCLKVLSECSPLMNDIFNKECRQSLSQMLSAKLEEEKLSQKKESEKRNVTVQPDDPISFMQLTAKNEMNCKEDQFQLSLLAAMGNTQRKEAADPLASKLNKVTQLTGFSDPVYAEAYVHVNQYDIVLDVLVVNQTSDTLQNCTLELATLGDLKLVEKPSPLTLAPHDFANIKANVKVASTENGIIFGNIVYDVSGAASDRNCVVLSDIHIDIMDYIQPATCTDAEFRQMWAEFEWENKVTVNTNMTDLNDYLQHILKSTNMKCLTPEKALSGYCGFMAANLYARSIFGEDALANVSIEKPVHQGPDAAVTGHIRIRAKSQGMALSLGDKINLSQKKTSL
With B1, the binding result is listed as “binds”.
